Measurements reported in PubChem BioAssay AID1224830 (NIAID, 2016).
Screen: 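Host factors that control LPS-induced TNF expression in human macrophages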 (primary screen). Cells: human THP-1 monocytic leukaemia cells, TNF dual-luciferase reporter clone, PMA-differentiated to macrophage-like cells. Reagents: siRNA pool against human genes, 50 nM. Duration: LPS for 4 h, given about 3 days after siRNA transfection. Treatment: bacterial LPS (TLR4 ligand), 10 ng/ml. Detection: 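Ratio of firefly to renilla light, scaled to the plate median and expressed as a robust z-score per replicate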. Direction: TNF reporter robust z-score: higher = stronger TNF reporter response to LPS. Active means: 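Each well counts as active if its z-score is over 2.8 or under -1.5; controls are left without a call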.
In all, the deposit lists about 18,000 reagents; shown is a part drawn at random. Of all reagents, about 2,900 (16%) are marked active. 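Calls are made per well; low scores hint the gene aids the LPS response, high scores that it dampens it.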 Repeated entries: four replicate wells of each siRNA pool.

TNF reporter robust z-score, by target gene and reagent
NEU1: SID315450213 0.8 inactive; SID315450213 1.49 inactive; SID315450213 0.87 inactive; SID315450213 1.81 inactive
CLUH: SID315455129 -1.33 inactive; SID315455129 1.6 inactive; SID315455129 0.63 inactive; SID315455129 -0.32 inactive
OR52N2: SID315464604 0.2 inactive; SID315464604 0.38 inactive; SID315464604 0.37 inactive; SID315464604 -0.22 inactive
MST1R: SID315450049 0.77 inactive; SID315450049 -0.33 inactive; SID315450049 -0.88 inactive; SID315450049 0.05 inactive
BIRC5: SID315447348 -1.23 inactive; SID315447348 -1.05 inactive; SID315447348 -1.84 active; SID315447348 -0.77 inactive
SNX29: SID315460200 0.01 inactive; SID315460200 -0.78 inactive; SID315460200 -0.09 inactive; SID315460200 0.84 inactive; SID315460974 -0.5 inactive; SID315460974 -0.44 inactive; SID315460974 0.1 inactive; SID315460974 -0.71 inactive
PLCE1: SID315456547 -1.8 active; SID315456547 -1.43 inactive; SID315456547 -1.32 inactive; SID315456547 0.62 inactive
TAAR1: SID315461982 -0.3 inactive; SID315461982 0.94 inactive; SID315461982 -0.17 inactive; SID315461982 0.63 inactive
PPP1R15B: SID315460574 -1.6 active; SID315460574 -0.8 inactive; SID315460574 -0.49 inactive; SID315460574 -1.26 inactive
SCNN1D: SID315451321 -0.66 inactive; SID315451321 0.54 inactive; SID315451321 0.95 inactive; SID315451321 -0.99 inactive
ELP1: SID315452620 -1.94 active; SID315452620 -1.93 active; SID315452620 -1.84 active; SID315452620 -1.81 active
RAB3IL1: SID315451009 1.69 inactive; SID315451009 1.51 inactive; SID315451009 2.26 inactive; SID315451009 -0.94 inactive
MATCAP1: SID315465147 -0.3 inactive; SID315465147 -0.27 inactive; SID315465147 0.17 inactive; SID315465147 2.67 inactive
AFMID: SID315461651 0.49 inactive; SID315461651 -0.82 inactive; SID315461651 -0.48 inactive; SID315461651 -0.43 inactive
SLX4: SID315460376 -1.46 inactive; SID315460376 -1.09 inactive; SID315460376 -1.37 inactive; SID315460376 -1 inactive
SDCBP: SID315451355 0.23 inactive; SID315451355 0.95 inactive; SID315451355 0.15 inactive; SID315451355 0.42 inactive
CCL25: SID315451347 22 active; SID315451347 1.08 inactive; SID315451347 1.46 inactive; SID315451347 0.91 inactive
ABCA12: SID315455696 -1.48 inactive; SID315455696 -1.38 inactive; SID315455696 -1.53 active; SID315455696 -1.21 inactive
TACC3: SID315454106 -1.23 inactive; SID315454106 -1.47 inactive; SID315454106 -1.05 inactive; SID315454106 -0.65 inactive
COL7A1: SID315448022 -0.18 inactive; SID315448022 1.08 inactive; SID315448022 -0.09 inactive; SID315448022 -0.04 inactive
NOC3L: SID315458887 -0.21 inactive; SID315458887 0.19 inactive; SID315458887 1.94 inactive; SID315458887 2.31 inactive
CPPED1: SID315457585 2.23 inactive; SID315457585 2.22 inactive; SID315457585 2.41 inactive; SID315457585 1.94 inactive
KLHDC1: SID315461560 0.02 inactive; SID315461560 -0.12 inactive; SID315461560 -0.26 inactive; SID315461560 0.46 inactive
AZI2: SID315458898 -0.58 inactive; SID315458898 0.42 inactive; SID315458898 0.02 inactive; SID315458898 -0.18 inactive
SH3PXD2A: SID315453446 1.78 inactive; SID315453446 3.38 active; SID315453446 3.46 active; SID315453446 1.81 inactive
ARHGAP44: SID315453669 0.62 inactive; SID315453669 2.61 inactive; SID315453669 0.68 inactive; SID315453669 0.56 inactive
PLAAT1: SID315458266 0.56 inactive; SID315458266 0.66 inactive; SID315458266 -0.95 inactive; SID315458266 0.17 inactive
LINC02870: SID315462896 -1.05 inactive; SID315462896 -0.77 inactive; SID315462896 -0.95 inactive; SID315462896 -1.16 inactive
CACNA1C: SID315447655 -1.62 active; SID315447655 -1.24 inactive; SID315447655 -0.18 inactive; SID315447655 -0.98 inactive
BLTP3A: SID315457240 -0.22 inactive; SID315457240 -0.09 inactive; SID315457240 -0.29 inactive; SID315457240 0.09 inactive
NFIL3: SID315450230 -0.78 inactive; SID315450230 -1.03 inactive; SID315450230 -0.88 inactive; SID315450230 -0.27 inactive
GLYCTK: SID315461913 -0.59 inactive; SID315461913 0.09 inactive; SID315461913 -0.89 inactive; SID315461913 0 inactive
QSOX2: SID315462885 1.45 inactive; SID315462885 1.79 inactive; SID315462885 1.92 inactive; SID315462885 2.88 active
NGB: SID315458613 1.55 inactive; SID315458613 2.04 inactive; SID315458613 2.15 inactive; SID315458613 2.26 inactive

Records listed so far whose gene name starts with A or a (16):
TNF reporter robust z-score, by target gene and reagent
AFMID: SID315461651 0.49 inactive; SID315461651 -0.82 inactive; SID315461651 -0.48 inactive; SID315461651 -0.43 inactive
ABCA12: SID315455696 -1.48 inactive; SID315455696 -1.38 inactive; SID315455696 -1.53 active; SID315455696 -1.21 inactive
AZI2: SID315458898 -0.58 inactive; SID315458898 0.42 inactive; SID315458898 0.02 inactive; SID315458898 -0.18 inactive
ARHGAP44: SID315453669 0.62 inactive; SID315453669 2.61 inactive; SID315453669 0.68 inactive; SID315453669 0.56 inactive
